# From the supplement of paper PMC3334620
# Over roughly 33,000 sequences, “E-score (-0.5 to 0.5)” has its median near -8e-05; the highest 2% begin near 0.23. The list shows a part of the results.
# Target: T1, Nrg2 (UniProt P38082)
# T1 sequence: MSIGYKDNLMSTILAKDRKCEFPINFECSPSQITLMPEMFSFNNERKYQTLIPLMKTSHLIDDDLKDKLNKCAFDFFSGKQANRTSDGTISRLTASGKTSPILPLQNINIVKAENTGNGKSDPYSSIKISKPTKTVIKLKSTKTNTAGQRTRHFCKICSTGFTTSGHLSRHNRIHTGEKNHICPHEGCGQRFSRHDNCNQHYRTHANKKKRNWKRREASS
# Test: PBM E-score (8-mer binding enrichment) (E-score (-0.5 to 0.5)); higher = stronger / more preferred TF binding
# Conditions: protein concentration: 100 nM; construct: GST-full length
# In short: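 Yeast transcription factors carrying a GST tag, as full-length proteins or DNA-binding domains, were produced by PURExpress in vitro transcription/translation. About 100-200 nM protein was applied to universal all-10-mer Agilent arrays, double-stranded by primer extension on fresh or once-stripped slides. Bound protein was detected with fluorescent anti-GST, and scans were normalised with masliner. The Universal PBM Analysis Suite gave each ungapped eight-base word, pooled with its reverse complement, an E-score, a modified Wilcoxon-Mann-Whitney statistic.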
row,Sequence,PBM E-score
1,ATGAAGCG,-0.153
2,CATCTAGC,0.0205
3,ACCGGTTC,-0.284
4,CATCCGCA,0.0851
5,CGACGACG,-0.0361
6,CTTTATTA,0.121
7,TGGGTCAA,-0.00067
8,AGGCAAGA,-0.0756
9,AAACTTAT,0.168
10,ACTCGCGC,0.0455
11,ATCTCTTC,0.0869
12,GAGAGTTA,-0.102
13,CGAAAATA,0.0971
14,CCATTACC,-0.0545
15,AGATCAGC,0.0597
16,AATTTATG,0.18
17,GATTTTGA,0.114
18,CACGGCCG,0.0265
19,CATACGCA,0.0189
20,AGGACGAC,-0.142
21,GTTGATGA,0.0639
22,ACTCATGA,0.143
23,CATTCTCA,0.195
24,TATATAAA,0.2
25,ACCTCACC,-0.0428

row,Sequence,PBM E-score
1,CCAATGGG,-0.23
2,AGACCTTA,0.00971
3,TATAATAA,0.169
4,TTTCCAAA,-0.157
5,AGATTACG,0.121
6,CGCTGTCA,-0.154
7,ACCAGTTA,0.106
8,CCGTTTAA,0.0881
9,AGTGTCTC,0.0365
10,AATCCTCG,-0.00244
11,ACAGACTC,-0.142
12,GATGTTGC,0.115
13,ATATGGCA,0.00508
14,CACCCACG,0.123
15,GCTGCCAA,-0.122
16,CACACAGG,0.202
17,AAATCGTA,0.214
18,GTGTGTGA,0.0519
19,ATGGCAAC,0.112
20,GAATGGTA,0.133
21,GTTCTTCA,0.0896
22,CACTGCAC,-0.0698
23,AGTTCTTG,0.137
24,CTTTTTAC,-0.0531
25,AAGATCGT,0.0712

row,Sequence,PBM E-score
1,ATGGTAAA,0.16
2,CGGAATAA,-0.075
3,CAGGGTCG,0.264
4,AGGTTCCG,0.0107
5,AAAGATCC,0.0534
6,CTCTTTTA,-0.0622
7,AGCCATAC,-0.0672
8,TGCACAAA,-0.123
9,CCCGGATC,0.0926
10,ACTAGGGC,-0.0479
11,AAGGGGGG,-0.4
12,ATCCAAAG,0.187
13,CGCCGCCG,0.0127
14,CACAGCGC,0.156
15,GTCCTAAC,-0.0539
16,CAATCGTA,0.147
17,GGAGGGCA,-0.194
18,CGGTCTAG,-0.0124
19,CAATTTCA,-0.0684
20,AAAATACG,0.0709
21,GACTCTAC,-0.037
22,ATTAACCG,0.107
23,ATGGATGC,0.0323
24,CAGTACTG,0.0483
25,TACTGGAA,-0.0181

# Reformatted: results already given
row	Sequence	PBM E-score
5	CGACGACG	-0.0361
20	AGGACGAC	-0.142
1	CCAATGGG	-0.23
11	ACAGACTC	-0.142
20	GAATGGTA	0.133
9	CCCGGATC	0.0926
20	AAAATACG	0.0709

# Continued:

row,Sequence,PBM E-score
1,AAGTTAGG,0.0699
2,ACTCCATC,0.097
3,AGTGTCAG,0.059
4,CTTAGGGA,-0.228
5,ACTCGTCA,0.0272
6,TTCGACAA,0.139
7,ACTTCCCC,-0.166
8,ACGTGCAT,-0.117
9,CTAGCACA,-0.19
10,CGAGTAAC,0.0845
11,CCCCAACG,-0.0878
12,GTGTATCA,0.166
13,GCTGCGGA,0.0757
14,GGACCCTA,0.305
15,ACAACAAG,0.0395
16,CAGCACAC,-0.208
17,CCTGGACA,0.0302
18,GTGGTGAA,-0.0401
19,TGCAACCA,0.0707
20,CTGCACCA,-0.0673
21,CCAGGCAA,0.0182
22,CCTAGTAC,0.0531
23,AGCGAGAC,-0.164
24,CTTTTGTA,0.151
25,ACGACGGG,-0.0412

row,Sequence,PBM E-score
1,CTCATGCC,-0.0322
2,CAGTAACC,0.0421
3,ATTCCCCA,0.103
4,AACTTTGT,0.251
5,CTTCTGGC,-0.0801
6,GGTTATCA,-0.0196
7,CACGGGCA,-0.102
8,ATCACTTC,0.0894
9,AGACCCTC,0.0175
10,CCCTTAAC,-0.0789
11,GGGGGACA,0.00654
12,CGCCTTAA,0.01
13,CGTGGAAG,0.0767
14,GGACCTAA,0.133
15,CATTCACG,-0.183
16,GGTGTGGA,0.0154
17,AGAGGTCA,0.0468
18,CACGGGGC,-0.0105
19,CGCCGTGA,-0.0232
20,CACGCGTC,0.0851
21,GGGTAACA,-0.0596
22,ATATAATA,0.213
23,CGCCATGC,-0.0442
24,GAAATGAA,0.29
25,CAGAATGA,0.0965

row,Sequence,PBM E-score
1,AACCATTG,-0.0415
2,ATCCTTGC,-0.0413
3,AATTACCC,0.0849
4,CCAAAGCA,0.119
5,CCAGAACC,-0.0345
6,GCTCTGCC,-0.161
7,CCCTAGCA,-0.0573
8,GGTTTGCA,0.0429
9,AGCTTGGG,0.0188
10,CTATAGAC,-0.0648
11,GTGTAGAA,-0.191
12,CGACGAAG,-0.0496
13,ACTACCTA,-0.0145
14,GGATTCCC,-0.124
15,CATTGAGA,0.0182
16,GGGTTAAC,0.0998
17,CCAGGTCA,-0.276
18,CAGCGTCA,-0.167
19,AGCAAACA,0.0834
20,TGGCTCAA,-0.0784
21,AATCTGAT,0.118
22,CCTCTTAC,-0.0717
23,CGTTCAAA,0.101
24,AGTTCCTG,0.0667
25,CATTGCGA,0.0343

row,Sequence,PBM E-score
1,AGTCGACG,0.225
2,AGAGCACC,-0.0541
3,GCCGTGAA,0.0848
4,TGGCGCAA,-0.0359
5,ATTAACTC,0.183
6,GGTGTCTA,-0.154
7,GGGTGAAA,-0.0047
8,AGATTAAG,0.0205
9,AGGGTAGC,0.181
10,AGCCGAGC,0.0355
11,ATATCTCG,0.0423
12,CATGCGTC,-0.109
13,CGGTATGA,0.0729
14,GAGCGTCA,-0.0373
15,GAGCGAAC,-0.0967
16,TCAATACA,0.0827
17,ATAACACC,0.0784
18,GTGTGCTA,-0.0679
19,AGCGAGTG,0.0308
20,AATGAAAG,-0.027
21,AAGAGTCA,-0.114
22,CCTAGAGG,-0.19
